Laboratory results from paper PMC7819943, “Rice protein-binding microarrays: a tool to detect cis-acting elements near promoter regions in rice”.
This is one part of the list.

Sequences of proteins named here, by UniProt entry; tags and fusion partners are left off.
UniProt Q0JBA9, entry or part of it: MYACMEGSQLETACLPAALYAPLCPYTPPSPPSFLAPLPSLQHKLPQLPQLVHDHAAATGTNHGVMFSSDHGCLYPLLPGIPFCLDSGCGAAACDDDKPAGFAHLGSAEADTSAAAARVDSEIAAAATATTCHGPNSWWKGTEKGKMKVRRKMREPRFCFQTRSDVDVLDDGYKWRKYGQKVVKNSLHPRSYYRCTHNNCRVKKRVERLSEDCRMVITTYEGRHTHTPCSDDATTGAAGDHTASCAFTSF

Target: OsWRKY34 (Oryza sativa, UniProt Q0JBA9 1-250)
Assay: protein-binding microarray (RPBM); PBS, 2% BSA, 51.3 ng/ul salmon testes DNA, 50 uM zinc acetate, 200 nM TF, 25 C, 1 h; high values mean tight binding
Details: protein: recombinant; tags: N-terminal polyhistidine and DsRed monomer fusion (pET32a); label: CyDye5-dUTP incorporated in the synthesized complementary strand; 3' TTTTT single-stranded linker to array surface; dsDNA, one strand shown
How it was run: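 Transcription factors, each fused N-terminally to a polyhistidine tag and DsRed, were expressed in E. coli BL21-CodonPlus and purified on Ni–NTA. A custom Agilent array was made double-stranded by primer extension with Cy5-dUTP and blocked with 2% BSA. It was incubated with 200 nM protein in PBS, 2% BSA, salmon testes DNA and 50 µM zinc acetate at 25 °C for 1 h, then washed. The binding signal is per-feature fluorescence intensity (arbitrary units) read on an Axon 4000B scanner.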

| Sequence | binding signal |
| --- | --- |
| AATTTTTTTTGGCCGATAGATTATTTCTGTAAATATTTAACGGAGTCACCTAGTGCAG | 8180 fluorescence intensity (a.u.) |
| TCCTGTACACCTCGAACCTCCTCTGCTTCTCTTCGGCAGTCGGAGTCACCTAGTGCAG | 8260 fluorescence intensity (a.u.) |
| CCACCTCCGCCGCCGCCACCCTCCGCCGCCGCCGCCGCCACGGAGTCACCTAGTGCAG | 8940 fluorescence intensity (a.u.) |
| CTTGGGTTGGGTTTTCAGTCCGGGGAATGAACTCGCTCGCCGGAGTCACCTAGTGCAG | 12900 fluorescence intensity (a.u.) |
| CATCAACCTTATCATGATAACATCACGCTGACGTGTCCTTCGGAGTCACCTAGTGCAG | 9570 fluorescence intensity (a.u.) |
| ACGTCAATTTGTTTTATCATTTTTAGGTATGCACTACATACGGAGTCACCTAGTGCAG | 8860 fluorescence intensity (a.u.) |
| TTCTCTGTAACCGTTCAATTTTCTCATTTTCTCAGAGAACCGGAGTCACCTAGTGCAG | 8320 fluorescence intensity (a.u.) |
| ATCCAACAATCTACCGGACCATTTCTTTCTTTAATTGCCACGGAGTCACCTAGTGCAG | 9420 fluorescence intensity (a.u.) |
| CCGCCGCCGTTCCGTTTTTTCTCTCTCGCGCCGCCGCCAGCGGAGTCACCTAGTGCAG | 17300 fluorescence intensity (a.u.) |
| TGTAGAGGTTGGTGGGTGGGTCGATTGGCTTAGCGAGAGGCGGAGTCACCTAGTGCAG | 13800 fluorescence intensity (a.u.) |
| TTTATATCATATTTCACGCGTACATTTTTCAAACTGTTAACGGAGTCACCTAGTGCAG | 9570 fluorescence intensity (a.u.) |
| AGGTCGAGATGGAGTTCCTTGGAGGCATGCCGAAGGACGTCGGAGTCACCTAGTGCAG | 8270 fluorescence intensity (a.u.) |
| GAAATATAACCCTTATCGCTCAGACTCATTGGTATCGCTGCGGAGTCACCTAGTGCAG | 8450 fluorescence intensity (a.u.) |
| CCATACTTCCTATTTCTATATTCGAACTGGCTAGCGTTGACGGAGTCACCTAGTGCAG | 10100 fluorescence intensity (a.u.) |
| GAGCATCGAGCTTGGTGGTGGTGGTGGTGGCGAGGCGATGCGGAGTCACCTAGTGCAG | 10300 fluorescence intensity (a.u.) |
| CTATATTTCTATTTTACCTTTCTAACTTATTGTGTTTTTTCGGAGTCACCTAGTGCAG | 11600 fluorescence intensity (a.u.) |
| GAACCAACTTATACTACAATTCTAAGAACATCTTTTCCTTCGGAGTCACCTAGTGCAG | 8250 fluorescence intensity (a.u.) |
| TAAACAATGATCGCGATGTCCGGTAGCTAATTACTATTTTCGGAGTCACCTAGTGCAG | 10500 fluorescence intensity (a.u.) |
| ATTTTGTTGTCGCACCTATATCATCACATGCCACACTTTTCGGAGTCACCTAGTGCAG | 12700 fluorescence intensity (a.u.) |
| TCTCACCTGCCTCTCCATCCCATCTCCTATACAACAGTTCCGGAGTCACCTAGTGCAG | 9160 fluorescence intensity (a.u.) |
| ACGATTCCTCGAGTGCTACAAACGGTTTCGCTACCAACAACGGAGTCACCTAGTGCAG | 9170 fluorescence intensity (a.u.) |

Reprinted at random: 2 entries already listed.

| Sequence | binding signal |
| --- | --- |
| AGGTCGAGATGGAGTTCCTTGGAGGCATGCCGAAGGACGTCGGAGTCACCTAGTGCAG | 8270 fluorescence intensity (a.u.) |
| TTCTCTGTAACCGTTCAATTTTCTCATTTTCTCAGAGAACCGGAGTCACCTAGTGCAG | 8320 fluorescence intensity (a.u.) |

Remaining list, next part

| Sequence | binding signal |
| --- | --- |
| TTATTTTCTCCACTCACTACTTGTTCGTTTAGCAATTTGTCGGAGTCACCTAGTGCAG | 8750 fluorescence intensity (a.u.) |
| TGATAATCTGTGTACCTTTGTGTTCATATGCTATACTCCTCGGAGTCACCTAGTGCAG | 8920 fluorescence intensity (a.u.) |
| GCTGCTTGACATCTTAGAATGATACTATCTGTTGTTTCTCCGGAGTCACCTAGTGCAG | 9320 fluorescence intensity (a.u.) |
| TCCATCTCCTCCACACTCTTCTTCTTCTTCTACCTCTCCACGGAGTCACCTAGTGCAG | 8040 fluorescence intensity (a.u.) |
| GCCGCCACCGCCACCGCCACCGCCACGTCCAGCCTCCGGTCGGAGTCACCTAGTGCAG | 8540 fluorescence intensity (a.u.) |
| TGCTGTGGGTTAATTCGCCTTTTTCACCTGTGGGCCGGGACGGAGTCACCTAGTGCAG | 12400 fluorescence intensity (a.u.) |
| CCTCCATTCTTCAGTTTTAATGCATCCTCTTCATCACTTCCGGAGTCACCTAGTGCAG | 11800 fluorescence intensity (a.u.) |
| TCACGTTTTTCTCAGTGGCTTCTATTCTTTTTTTTTTCCCCGGAGTCACCTAGTGCAG | 10500 fluorescence intensity (a.u.) |
| TTTTTTTCTGACTAGGATGCCACATCAGCGAAACCACCCACGGAGTCACCTAGTGCAG | 8770 fluorescence intensity (a.u.) |
| ACTTTTTAAATATGTTTGACCGTTCGTCTTATTCAAAAACCGGAGTCACCTAGTGCAG | 9990 fluorescence intensity (a.u.) |
| GCCTGGTATCGCTGCTGCTCTGGTTGTCTCTCGTCCTGAGCGGAGTCACCTAGTGCAG | 9870 fluorescence intensity (a.u.) |
| TTATATGTCCTGAATTCCTGATGGTGTGGTAGTAGTGCGACGGAGTCACCTAGTGCAG | 9530 fluorescence intensity (a.u.) |
| GACTAACCTGCCTAATTGTCACAGGTCCCACTAGTTCTTGCGGAGTCACCTAGTGCAG | 8280 fluorescence intensity (a.u.) |
| AAACTATATCATGCTACTTTAGGTATAAAACTAGTGTTTTCGGAGTCACCTAGTGCAG | 8430 fluorescence intensity (a.u.) |
| GAATAAATAATCTCTTGTGAGCTCTCATACGCCACACATACGGAGTCACCTAGTGCAG | 8820 fluorescence intensity (a.u.) |
| GCCTCACTGCCTCTACCTCGGCAGGCTCACTCACCTCGCTCGGAGTCACCTAGTGCAG | 12600 fluorescence intensity (a.u.) |
| TCAGGGTGGGCAGGTTAACGGATGTTGATTGTTGGTGTGTCGGAGTCACCTAGTGCAG | 11700 fluorescence intensity (a.u.) |
| TTAATCTCTCATGCTTATGCTCATGGCAGCCGACGTCTCCCGGAGTCACCTAGTGCAG | 8370 fluorescence intensity (a.u.) |
| CATTTACAAATTTTGCCATTAATTCTTTTTTATGTTTCGCCGGAGTCACCTAGTGCAG | 9010 fluorescence intensity (a.u.) |
| ACACCCTACCAGTTCATTACCAAAATTTTGACCAGAGACACGGAGTCACCTAGTGCAG | 9240 fluorescence intensity (a.u.) |
| ATTGCCGTGAGCCCGTGACTACTCTTTACTCTTTCTTTTCCGGAGTCACCTAGTGCAG | 13700 fluorescence intensity (a.u.) |
